{
  "sequences": {"note": "By UniProt entry, the sequences of proteins in these tests, tags left out. Residues count along the entry.", "UniProt P35222, 2-781": "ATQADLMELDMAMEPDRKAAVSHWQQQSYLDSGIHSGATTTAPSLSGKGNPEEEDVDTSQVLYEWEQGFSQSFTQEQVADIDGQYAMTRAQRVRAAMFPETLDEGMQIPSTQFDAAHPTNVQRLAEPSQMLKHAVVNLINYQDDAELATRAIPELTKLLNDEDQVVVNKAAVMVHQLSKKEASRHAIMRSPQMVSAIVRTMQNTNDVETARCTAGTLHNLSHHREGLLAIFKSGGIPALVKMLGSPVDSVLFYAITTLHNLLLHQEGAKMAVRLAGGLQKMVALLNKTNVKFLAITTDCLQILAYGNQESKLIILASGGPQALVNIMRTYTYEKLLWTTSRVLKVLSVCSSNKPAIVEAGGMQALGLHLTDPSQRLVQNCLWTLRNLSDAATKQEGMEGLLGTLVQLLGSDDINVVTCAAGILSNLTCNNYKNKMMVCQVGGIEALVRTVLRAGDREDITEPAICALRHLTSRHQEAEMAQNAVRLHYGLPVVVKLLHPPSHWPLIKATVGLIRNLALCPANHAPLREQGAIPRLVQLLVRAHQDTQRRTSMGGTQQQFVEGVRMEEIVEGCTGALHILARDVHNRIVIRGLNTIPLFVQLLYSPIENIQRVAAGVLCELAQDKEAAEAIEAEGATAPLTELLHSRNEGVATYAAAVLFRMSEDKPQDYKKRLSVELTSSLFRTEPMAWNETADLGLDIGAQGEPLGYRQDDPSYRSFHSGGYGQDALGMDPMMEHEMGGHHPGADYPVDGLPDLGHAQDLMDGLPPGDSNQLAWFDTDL", "UniProt P35222, whole entry": "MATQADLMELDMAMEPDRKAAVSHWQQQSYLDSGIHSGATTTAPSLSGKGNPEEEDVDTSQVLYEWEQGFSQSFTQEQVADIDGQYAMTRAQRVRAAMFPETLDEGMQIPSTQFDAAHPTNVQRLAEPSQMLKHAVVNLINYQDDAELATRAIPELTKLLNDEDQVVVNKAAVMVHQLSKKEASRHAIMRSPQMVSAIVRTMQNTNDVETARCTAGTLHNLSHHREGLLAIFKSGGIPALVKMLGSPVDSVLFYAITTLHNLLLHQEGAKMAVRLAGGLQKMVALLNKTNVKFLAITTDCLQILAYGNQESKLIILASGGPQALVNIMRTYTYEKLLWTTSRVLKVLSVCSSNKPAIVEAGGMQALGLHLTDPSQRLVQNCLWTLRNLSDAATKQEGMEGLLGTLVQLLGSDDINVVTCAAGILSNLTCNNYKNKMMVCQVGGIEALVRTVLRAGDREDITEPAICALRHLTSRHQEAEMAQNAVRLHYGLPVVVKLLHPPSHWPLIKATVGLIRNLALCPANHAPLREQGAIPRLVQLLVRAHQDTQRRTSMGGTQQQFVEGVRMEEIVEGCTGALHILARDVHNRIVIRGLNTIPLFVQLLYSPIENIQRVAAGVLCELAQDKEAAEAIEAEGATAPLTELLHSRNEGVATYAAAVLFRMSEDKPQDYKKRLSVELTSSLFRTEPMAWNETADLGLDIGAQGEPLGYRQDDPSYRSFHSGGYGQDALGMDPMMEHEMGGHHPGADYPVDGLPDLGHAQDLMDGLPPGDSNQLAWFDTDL", "UniProt P35222, 129-695": "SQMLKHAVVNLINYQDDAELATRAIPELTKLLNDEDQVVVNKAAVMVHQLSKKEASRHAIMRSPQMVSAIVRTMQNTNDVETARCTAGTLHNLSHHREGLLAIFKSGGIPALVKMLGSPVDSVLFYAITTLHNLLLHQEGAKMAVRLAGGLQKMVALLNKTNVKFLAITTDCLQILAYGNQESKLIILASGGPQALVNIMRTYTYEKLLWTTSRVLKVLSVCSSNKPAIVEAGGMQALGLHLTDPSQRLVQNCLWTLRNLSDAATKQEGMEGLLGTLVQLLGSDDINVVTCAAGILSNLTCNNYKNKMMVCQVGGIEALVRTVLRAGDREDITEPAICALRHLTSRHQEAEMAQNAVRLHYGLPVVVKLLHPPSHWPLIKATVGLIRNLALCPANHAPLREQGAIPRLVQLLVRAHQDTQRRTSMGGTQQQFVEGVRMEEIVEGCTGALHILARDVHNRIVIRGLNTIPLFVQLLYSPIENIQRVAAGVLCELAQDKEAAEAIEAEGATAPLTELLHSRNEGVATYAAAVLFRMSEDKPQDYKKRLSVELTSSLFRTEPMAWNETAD"},
  "source": "patent US7999089",
  "key": {"[1]": {"biological_target": "TCF-1 (S49.1 nuclear extract) (Mus musculus) (UniProt Q00417)", "test": "competition with a labelled probe", "conditions": "protein in an extract"}, "[2]": {"biological_target": "TCF-1 (S49.1 nuclear extract) (Mus musculus) (UniProt Q00417)", "test": "EMSA", "conditions": "poly(dI-dC), protein in an extract"}, "[3]": {"biological_target": "T1, γ-catenin (endogenous, HCT116 nuclear extract) (Homo sapiens) (UniProt P14923)", "T1 sequence (looked up, limits assumed)": "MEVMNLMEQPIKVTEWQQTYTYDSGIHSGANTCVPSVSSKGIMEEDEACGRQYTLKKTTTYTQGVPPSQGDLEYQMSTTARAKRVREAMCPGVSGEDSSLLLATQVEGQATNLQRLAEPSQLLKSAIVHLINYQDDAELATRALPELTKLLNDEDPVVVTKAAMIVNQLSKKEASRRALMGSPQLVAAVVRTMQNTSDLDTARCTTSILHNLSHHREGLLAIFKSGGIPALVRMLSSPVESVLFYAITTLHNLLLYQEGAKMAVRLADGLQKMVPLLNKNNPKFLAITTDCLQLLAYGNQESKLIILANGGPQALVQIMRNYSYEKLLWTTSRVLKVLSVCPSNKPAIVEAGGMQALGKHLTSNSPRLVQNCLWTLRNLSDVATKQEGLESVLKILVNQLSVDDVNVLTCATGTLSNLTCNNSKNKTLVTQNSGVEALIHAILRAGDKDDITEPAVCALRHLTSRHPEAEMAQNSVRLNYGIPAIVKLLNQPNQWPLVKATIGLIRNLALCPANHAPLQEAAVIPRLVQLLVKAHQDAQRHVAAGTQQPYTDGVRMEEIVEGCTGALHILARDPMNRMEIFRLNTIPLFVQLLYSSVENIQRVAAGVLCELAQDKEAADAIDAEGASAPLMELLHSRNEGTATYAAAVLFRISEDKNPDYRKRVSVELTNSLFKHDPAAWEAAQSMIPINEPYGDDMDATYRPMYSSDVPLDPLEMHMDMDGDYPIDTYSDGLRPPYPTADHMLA", "test": "pull-down", "conditions": "no intramer associated with γ-catenin; protein in an extract; variant of β-catenin RNA aptamer"}, "[4]": {"biological_target": "β-catenin (endogenous, HCT116 or SW480 nuclear extract) (Homo sapiens) (UniProt P35222)", "test": "pull-down", "conditions": "protein in an extract"}, "[5]": {"biological_target": "GST-β-catenin, full length (UniProt P35222)", "test": "inhibition of the protein", "conditions": "disrupts recombinant β-catenin/TCF interaction in co-IP; purified recombinant protein; protein details: GST fusion, E. coli; label: 32P (radiolabelled); dose not given here"}, "[6]": {"system": "NFAT-1 DNA binding domain", "test": "pull-down", "conditions": "purified recombinant protein; protein details: (His)6; label: 32P-UTP"}, "[7]": {"biological_target": "TCF-1 C200 (HMG domain) (Mus musculus) (UniProt Q00417)", "test": "pull-down", "conditions": "GST pull-down; purified recombinant protein; protein details: GST fusion, pGEX 4T-1; label: 32P-UTP"}, "[8]": {"biological_target": "T2, TCF-1 N100 (β-catenin binding domain) (Mus musculus) (UniProt Q00417)", "T2 sequence (looked up)": "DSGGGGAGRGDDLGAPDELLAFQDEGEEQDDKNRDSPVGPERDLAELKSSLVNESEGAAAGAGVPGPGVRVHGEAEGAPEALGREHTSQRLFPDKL", "test": "pull-down", "conditions": "purified recombinant protein; protein details: GST fusion, pGEX 4T-1; label: 32P-UTP"}, "GST-β-catenin Arm 1-12": {"biological_target": "GST-β-catenin Arm 1-12 (UniProt P35222)", "test": "pull-down", "conditions": "β-catenin control; construct not given; purified recombinant protein; protein details: GST fusion, E. coli; label: 32P-UTP"}, "[9]": {"biological_target": "TCF-1 C200 (HMG domain) (Mus musculus) (UniProt Q00417)", "test": "competition with a labelled probe", "conditions": "dose-dependent inhibition of TRE binding; purified recombinant protein; protein details: GST fusion, pGEX 4T-1; label: 32P-UTP; dose not given here"}},
  "note": "For some of these results: Results from cells or extracts need not show a direct contact. For some of these results: Negatives hold for the conditions tested. For some of these results: The exact form of at least one protein or probe is not confirmed. For some of these results: Where a protein sequence is shown, tags need not be part of it.",
  "data": [
    {"sequence": "UGCUGACAAUUCUCGUGCCUCUCCAUGGUCUGCGGCUGAGAAGGUUCGCCAAGUUGUGGGCCGGGGUGC [RNA #9]", "values": [
      {"measurement": "binding result", "setting": "[1]; did not compete with #10", "value": "no binding"}
    ]},
    {"sequence": "GGTAAGATCAAAGGG (double strand) [TRE (TCF responsive element)]", "values": [
      {"measurement": "binding result", "setting": "[2]; full-length TCF-1, S49.1 nuclear extract, label: 32P 5'-end", "value": "binds"}
    ]},
    {"sequence": "GGACGCGUGGUACCAGGCCGAUCUAUGGACGCUAUAGGCACACCGGAUACUUUAACGAUUGGCUAAGCUUCCGCGGGGAUC [U6-RNA intramer (β-catenin aptamer under U6 promoter)]", "values": [
      {"measurement": "binding result", "setting": "[3]", "value": "no binding"},
      {"measurement": "binding result", "setting": "[4]; RNA co-immunoprecipitation with anti-β-catenin from HCT116, variant of β-catenin RNA aptamer", "value": "binds"}
    ]},
    {"sequence": "GGACGCGUGGUACCAGGCCGAUCUAUGGACGCUAUAGGCACACCGGAUACUUUAACGAUUGGCUAAGCUUCCGCGGGGAUC [β-catenin RNA aptamer]", "values": [
      {"measurement": "binding result", "setting": "[4]; label: 32P (radiolabelled)", "value": "binds"},
      {"measurement": "functional effect of the aptamer", "setting": "[5]", "value": "active"}
    ]},
    {"sequence": "CGGUGCGAUCAAGCUGUUUACAUUGCAUGCUAGGACGACGCGCCCGAGCGGGUACCGAUUGUGUCGUCGG [RNA aptamer #10]", "values": [
      {"measurement": "binding result", "setting": "[6]", "value": "no binding"},
      {"measurement": "binding result", "setting": "[7]", "value": "binds"},
      {"measurement": "binding result", "setting": "[8]", "value": "no binding"},
      {"measurement": "binding result", "setting": "GST-β-catenin Arm 1-12", "value": "no binding"},
      {"measurement": "functional effect of the aptamer", "setting": "[9]", "value": "active"},
      {"measurement": "functional effect of the aptamer", "setting": "[1]; inhibits TRE binding to full-length TCF-1, label: 32P-UTP, dose not given here", "value": "active"},
      {"measurement": "binding result", "setting": "[2]; room temperature, self-competition, label: 32P-UTP", "value": "binds"}
    ]}
  ]
}
